Measured values from article PMC12591035, “Bni5 regulates and coordinates septin architecture and myosin-II functions at the cell division site” (The Journal of Cell Biology, 2025).
Results are given in words; binding and its absence hold for the method and conditions named. For some assays here: In cells and extracts the contact can be indirect. Some binding calls cover weakened binding; strength is not graded here. Tags and fused reporters may be left off the sequences shown.

B1: His-SUMO-Elm1(421-640) (domain or fragment, UniProt P32801 421-640)
chain: SSSSVNPVRNEGPVRRFFGRLLTKKGKKKTSGKGKDKVLVSATSKVTPSIHIDEEPDKECFSTTVLRSSPDSSDYCSSLGEEAIQVTDFLDTFCRSNESLPNLTVNNDKQNSDMKTDRSESSSHSSLKIPTPIKAMIRLKSSPKENGNRTHINCSQDKPSSPLMDRTVGKRTVNNSGARKLAHSSNILNFKAYINSEDSDIRETVEDVKTYLNFADNGQI
B2: Shs1 (protein, UniProt Q07657 1-551)
chain: MSTASTPPINLFRRKKEHKRGITYTMLLCGPAGTGKTAFANNLLETKIFPHKYQYGKSNASISSNPEVKVIAPTKVVSFNSKNGIPSYVSEFDPMRANLEPGITITSTSLELGGNKDQGKPEMNEDDTVFFNLIMTHGIGENLDDSLCSEEVMSYLEQQFDIVLAEETRIKRNPRFEDTRVHVALYFIEPTGHGLREVDVELMKSISKYTNVLPIITRADSFTKEELTQFRKNIMFDVERYNVPIYKFEVDPEDDDLESMEENQALASLQPFAIITSDTRDSEGRYVREYPWGIISIDDDKISDLKVLKNVLFGSHLQEFKDTTQNLLYENYRSEKLSSVANAEEIGPNSTKRQSNAPSLSNFASLISTGQFNSSQTLANNLRADTPRNQVSGNFKENEYEDNGEHDSAENEQEMSPVRQLGREIKQENENLIRSIKTESSPKFLNSPDLPERTKLRNISETVPYVLRHERILARQQKLEELEAQSAKELQKRIQELERKAHELKLREKLINQNKLNGSSSSINSLQQSTRSQIKKNDTYTDLASIASGRD
B3: Cdc10 (protein, UniProt P25342 1-322)
chain: MDPLSSVQPASYVGFDTITNQIEHRLLKKGFQFNIMVVGQSGLGKSTLINTLFASHLIDSATGDDISALPVTKTTEMKISTHTLVEDRVRLNINVIDTPGFGDFIDNSKAWEPIVKYIKEQHSQYLRKELTAQRERFITDTRVHAILYFLQPNGKELSRLDVEALKRLTEIANVIPVIGKSDTLTLDERTEFRELIQNEFEKYNFKIYPYDSEELTDEELELNRSVRSIIPFAVVGSENEIEINGETFRGRKTRWSAINVEDINQCDFVYLREFLIRTHLQDLIETTSYIHYEGFRARQLIALKENANSRSSAHMSSNAIQR
B4: Cdc3 (protein, UniProt P32457 1-520)
chain: MSLKEEQVSIKQDPEQEERQHDQFNDVQIKQESQDHDGVDSQYTNGTQNDDSERFEAAESDVKVEPGLGMGITSSQSEKGQVLPDQPEIKFIRRQINGYVGFANLPKQWHRRSIKNGFSFNLLCVGPDGIGKTTLMKTLFNNDDIEANLVKDYEEELANDQEEEEGQGEGHENQSQEQRHKVKIKSYESVIEENGVKLNLNVIDTEGFGDFLNNDQKSWDPIIKEIDSRFDQYLDAENKINRHSINDKRIHACLYFIEPTGHYLKPLDLKFMQSVYEKCNLIPVIAKSDILTDEEILSFKKTIMNQLIQSNIELFKPPIYSNDDAENSHLSERLFSSLPYAVIGSNDIVENYSGNQVRGRSYPWGVIEVDNDNHSDFNLLKNLLIKQFMEELKERTSKILYENYRSSKLAKLGIKQDNSVFKEFDPISKQQEEKTLHEAKLAKLEIEMKTVFQQKVSEKEKKLQKSETELFARHKEMKEKLTKQLKALEDKKKQLELSINSASPNVNHSPVPTKKKGFLR

Columns and labels:
[1] = molecular target: T1, GST-Bni5-Ext-HR2 (GST-Bni5(306-393)) (S. cerevisiae) (UniProt P53890); test: pull-down; 3.5 μg GST fusion on glutathione resin with 3.5 μg His6-Sumo-Elm1-C or MBP-Myo1-mTD1; 20 mM MOPS pH 7.0, 1 mM EGTA, 150 mM NaCl, 1 mM DTT, 0.1% NP-40; 1 h; five washes; Coomassie gel and anti-6xHis or anti-MBP blot; both purified
T1 sequence: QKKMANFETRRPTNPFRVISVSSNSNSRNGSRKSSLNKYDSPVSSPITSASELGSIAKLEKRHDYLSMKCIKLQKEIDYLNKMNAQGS

[2] = molecular target: T2, GST-Bni5-HR2-HR3 (GST-Bni5(340-448)) (S. cerevisiae) (UniProt P53890); test: as above
T2 sequence: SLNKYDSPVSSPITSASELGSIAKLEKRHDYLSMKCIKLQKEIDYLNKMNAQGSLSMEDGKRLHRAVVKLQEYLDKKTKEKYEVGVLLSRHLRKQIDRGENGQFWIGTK

[3] = molecular target: T3, His6-Cdc12 (S. cerevisiae) (UniProt P32468); test: pull-down; co-purification: septins co-expressed in E. coli BL21(DE3), complexes held on His-tag resin through His6-Cdc12 in 300 mM NaCl buffer, eluted with imidazole; Coomassie gel, anti-Shs1 blot
T3 sequence: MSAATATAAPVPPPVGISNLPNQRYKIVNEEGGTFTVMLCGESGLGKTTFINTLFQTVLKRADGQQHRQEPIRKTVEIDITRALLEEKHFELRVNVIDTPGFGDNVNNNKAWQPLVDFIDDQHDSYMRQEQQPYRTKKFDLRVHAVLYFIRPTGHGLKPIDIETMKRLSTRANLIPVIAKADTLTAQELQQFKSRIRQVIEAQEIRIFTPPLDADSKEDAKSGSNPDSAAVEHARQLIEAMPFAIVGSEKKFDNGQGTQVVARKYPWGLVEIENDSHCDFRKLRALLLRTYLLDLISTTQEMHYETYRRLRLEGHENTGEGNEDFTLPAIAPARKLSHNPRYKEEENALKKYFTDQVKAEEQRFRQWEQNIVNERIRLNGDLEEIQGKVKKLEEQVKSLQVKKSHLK

| Binder | binding [1] | binding [2] | binding [3] |
| --- | --- | --- | --- |
| B1 | binds weakly | binds weakly |  |
| B2 |  |  | binds |
| B3 |  |  | binds |
| B4 |  |  | binds |
